Where a name gives a salt, the structure may show the parent alone. The list shows a part of the results. Repeats in this data set agree poorly, so a single value says little.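 A screen tested FDA-approved drugs combined with one-eighth-MIC colistin against a clinical mcr-1-positive, multidrug-resistant E. coli isolate, measuring OD600 at 24 h. Controls were untreated bacteria (growth) and broth alone (blank). An OD600 under 0.2 marked a combination as active.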

The test system of the assay is Escherichia coli 42 (mcr-1-positive clinical isolate). In words: OD600 after 24 h growth with compound plus colistin (absorbance units (OD600)); higher = more bacterial growth (less inhibition). The note with it: first compound 25 µM; colistin concentration 0.5 ug/mL; incubation time 24 h; 37 °C.
In the case of `COc1cc([C@@H]2c3cc4c(cc3[C@@H](O[C@@H]3O[C@@H]5CO[C@@H](C)O[C@H]5[C@H](O)[C@H]3O)[C@H]3COC(=O)[C@H]23)OCO4)cc(OC)c1O` [Etoposide] + CCC(C)CCCC(=O)N[C@@H](CCN)C(=O)N[C@H](C(=O)N[C@@H](CCN)C(=O)N[C@H]1CCNC(=O)[C@H]([C@@H](C)O)NC(=O)[C@H](CCN)NC(=O)[C@H](CCN)NC(=O)[C@H](CC(C)C)NC(=O)[C@@H](CC(C)C)NC(=O)[C@H](CCN)NC1=O)[C@@H](C)O [colistin], the OD600 was inactive: 1.02.

As for `Nc1cccc2c1CN(C1CCC(=O)NC1=O)C2=O` (stereo not given) [Lenalidomide] + CCC(C)CCCC(=O)N[C@@H](CCN)C(=O)N[C@H](C(=O)N[C@@H](CCN)C(=O)N[C@H]1CCNC(=O)[C@H]([C@@H](C)O)NC(=O)[C@H](CCN)NC(=O)[C@H](CCN)NC(=O)[C@H](CC(C)C)NC(=O)[C@@H](CC(C)C)NC(=O)[C@H](CCN)NC1=O)[C@@H](C)O [colistin], the OD600 was inactive: 1.1.

With `CCn1cc(C(=O)O)c(=O)c2cc(F)c(N3CCNCC3)nc21` [Enoxacin hydrate] + CCC(C)CCCC(=O)N[C@@H](CCN)C(=O)N[C@H](C(=O)N[C@@H](CCN)C(=O)N[C@H]1CCNC(=O)[C@H]([C@@H](C)O)NC(=O)[C@H](CCN)NC(=O)[C@H](CCN)NC(=O)[C@H](CC(C)C)NC(=O)[C@@H](CC(C)C)NC(=O)[C@H](CCN)NC1=O)[C@@H](C)O [colistin], the OD600 is inactive: 0.924.

For the compound `OCc1ccccc1` [Benzyl alcohol] + CCC(C)CCCC(=O)N[C@@H](CCN)C(=O)N[C@H](C(=O)N[C@@H](CCN)C(=O)N[C@H]1CCNC(=O)[C@H]([C@@H](C)O)NC(=O)[C@H](CCN)NC(=O)[C@H](CCN)NC(=O)[C@H](CC(C)C)NC(=O)[C@@H](CC(C)C)NC(=O)[C@H](CCN)NC1=O)[C@@H](C)O [colistin], the OD600 is inactive: 1.

With `O=c1[nH]c(=O)n([C@H]2C[C@H](O)[C@@H](CO)O2)cc1F` [Floxuridine] + CCC(C)CCCC(=O)N[C@@H](CCN)C(=O)N[C@H](C(=O)N[C@@H](CCN)C(=O)N[C@H]1CCNC(=O)[C@H]([C@@H](C)O)NC(=O)[C@H](CCN)NC(=O)[C@H](CCN)NC(=O)[C@H](CC(C)C)NC(=O)[C@@H](CC(C)C)NC(=O)[C@H](CCN)NC1=O)[C@@H](C)O [colistin], the OD600 is inactive: 0.81.

As for `CC(O)(P(=O)(O)O)P(=O)(O)O` [Sodium etidronate] + CCC(C)CCCC(=O)N[C@@H](CCN)C(=O)N[C@H](C(=O)N[C@@H](CCN)C(=O)N[C@H]1CCNC(=O)[C@H]([C@@H](C)O)NC(=O)[C@H](CCN)NC(=O)[C@H](CCN)NC(=O)[C@H](CC(C)C)NC(=O)[C@@H](CC(C)C)NC(=O)[C@H](CCN)NC1=O)[C@@H](C)O [colistin], the OD600 was inactive: 1.08.

As to `Cc1ncc(CO)c(CO)c1O` [Pyridoxine] + CCC(C)CCCC(=O)N[C@@H](CCN)C(=O)N[C@H](C(=O)N[C@@H](CCN)C(=O)N[C@H]1CCNC(=O)[C@H]([C@@H](C)O)NC(=O)[C@H](CCN)NC(=O)[C@H](CCN)NC(=O)[C@H](CC(C)C)NC(=O)[C@@H](CC(C)C)NC(=O)[C@H](CCN)NC1=O)[C@@H](C)O [colistin], the OD600 was inactive: 0.948.

Take `CCN(CC)C(=O)C1(c2ccccc2)CC1CN` (stereo not given) [Milnacipran hydrochloride] + CCC(C)CCCC(=O)N[C@@H](CCN)C(=O)N[C@H](C(=O)N[C@@H](CCN)C(=O)N[C@H]1CCNC(=O)[C@H]([C@@H](C)O)NC(=O)[C@H](CCN)NC(=O)[C@H](CCN)NC(=O)[C@H](CC(C)C)NC(=O)[C@@H](CC(C)C)NC(=O)[C@H](CCN)NC1=O)[C@@H](C)O [colistin]: the OD600 is inactive: 1.06.

`CCc1cc(C(N)=S)ccn1` [Ethionamide] + CCC(C)CCCC(=O)N[C@@H](CCN)C(=O)N[C@H](C(=O)N[C@@H](CCN)C(=O)N[C@H]1CCNC(=O)[C@H]([C@@H](C)O)NC(=O)[C@H](CCN)NC(=O)[C@H](CCN)NC(=O)[C@H](CC(C)C)NC(=O)[C@@H](CC(C)C)NC(=O)[C@H](CCN)NC1=O)[C@@H](C)O [colistin]: the OD600 is active: 0.038.

For `COC(=O)C1=C(C)NC(C)=C(C(=O)OCCN(C)Cc2ccccc2)C1c1cccc([N+](=O)[O-])c1` (stereo not given) [Nicardipine hydrochloride] + CCC(C)CCCC(=O)N[C@@H](CCN)C(=O)N[C@H](C(=O)N[C@@H](CCN)C(=O)N[C@H]1CCNC(=O)[C@H]([C@@H](C)O)NC(=O)[C@H](CCN)NC(=O)[C@H](CCN)NC(=O)[C@H](CC(C)C)NC(=O)[C@@H](CC(C)C)NC(=O)[C@H](CCN)NC1=O)[C@@H](C)O [colistin], the OD600 is inactive: 0.913.

(Values after the supplement of paper PMC11546906.)
